Assay results: the supplement of paper PMC5355238
Counter-ions that a name gives are not always drawn. The list shows a part of the results. Repeats are few or missing, and single values can be far off.

Tested on: Reh
Test: S-phase gammaH2AX median, Z-score vs plate median (drug alone); higher = more S-phase DNA damage
Conditions: MK1775 concentration 0 nM; 10 µM; 4 h

SMILES | S-phase gammaH2AX median (Z-score)
CNC(=O)c1cc(COc2nnc(Nc3ccc(Cl)cc3)c3ccoc23)ccn1 [Telatinib (BAY 57-9352)] | -0.0808
CN1CCN(c2nc3cc(C(F)(F)F)ccc3n3cccc23)CC1 | 0.0136
COc1cc2nccc(Oc3ccc(NC(=O)C4(C(=O)Nc5ccc(F)cc5)CC4)cc3)c2cc1OC [XL-184 free base (Cabozantinib)] | -0.0862
C[C@@H]1C[C@H]2[C@@H]3CCC4=CC(=O)C=C[C@]4(C)[C@@]3(F)[C@@H](O)C[C@]2(C)[C@@]1(O)C(=O)CO [Dexamethasone] | -0.0476
N=C(N)SCCc1c[nH]cn1 [Imetit dihydrobromide] | 0.0882
Cc1cnc(NC(=O)C2=C(O)c3ccccc3S(=O)(=O)N2C)s1 [Meloxicam sodium] | -0.0639
O=C(O)CCCc1ccccc1 [4-Phenylbutyrate] | 0.053
COc1cc(NS(C)(=O)=O)ccc1Nc1c2ccccc2nc2ccccc12 [Amsacrine hydrochloride] | 10.8
FC(F)c1nc2ccccc2n1-c1nc(N2CCOCC2)nc(N2CCOCC2)n1 | -0.105
CN(C)c1ccc(/C=C2/C(=O)Nc3ccccc32)cc1 | 0.24
CN1CCN(CCOc2cc(OC3CCOCC3)c3c(Nc4c(Cl)ccc5c4OCO5)ncnc3c2)CC1 [Saracatinib (AZD0530)] | 0.0599
Nc1ccc(S(=O)(=O)Nc2ccnn2-c2ccccc2)cc1 [Sulfaphenazole] | 0.1
CC(C)(C)[C@]1(O)CCN2C[C@H]3c4ccccc4CCc4cccc(c43)[C@@H]2C1 [(+)-Butaclamol hydrochloride] | 0.854
Nc1nc2[nH]c(=O)cnc2c(=O)[nH]1 [Isoxanthopterin] | -0.236
Nc1ncnc2c1nc(Sc1ccc(Cl)cc1)n2C1OC2COP(=O)(O)O[C@@H]2[C@@H]1O (stereo partly drawn) [8-(4-Chlorophenylthio)-cAMP sodium] | -0.0155
O=C(O)C1=CCCNC1 [Guvacine hydrochloride] | 0.302
COc1ccccc1N1CCN(CCCCNS(=O)(=O)c2cccc3c(N(C)C)cccc23)CC1 [Cortexolone maleate] | 0.0868
NCCNC(=O)c1ncsc1-c1cccc(F)c1 [Ro 41-1049 hydrochloride] | -0.327
CCn1ccnc1CC1COc2ccccc2O1 (stereo not drawn) [Imiloxan hydrochloride] | 0.107

SMILES | S-phase gammaH2AX median (Z-score)
O=C1CC2(CCCC2)CC(=O)N1CCCCN1CCN(c2ncccn2)CC1 [Buspirone hydrochloride] | -0.00194
O=C(NOC[C@H](O)CO)c1ccc(F)c(F)c1Nc1ccc(I)cc1F | 0.0445
Cc1cc(C)c(/C=C2\C(=O)Nc3ccccc32)[nH]1 | -0.16
O=C(Nc1ncc([N+](=O)[O-])s1)c1ccc([N+](=O)[O-])c(Cl)c1 | 0.13
N[C@H](C(=O)O)c1cc(O)cc(O)c1 [(S)-3,5-Dihydroxyphenylglycine] | -0.00945
Cc1cccc(C#Cc2ccccc2)n1 [6-Methyl-2-(phenylethynyl)pyridine hydrochloride] | 0.166
C=CCN1CCc2c(cc(O)c(O)c2Br)[C@@H](c2ccccc2)C1 [R(+)-6-Bromo-APB hydrobromide] | 0.0563
CN(C)c1nc(N(C)C)nc(N(C)C)n1 [Altretamine] | 0.0641
CN(C)c1nc(N(C)C)nc(N(C)C)n1 [Altretamine (Hexalen)] | 0.13
Nc1nc2c(nc(Br)n2C2OC3COP(=O)(O)O[C@@H]3C2O)c(=O)[nH]1 (stereo partly drawn) [8-Bromo-cGMP sodium] | -0.0194
CC(=O)O[C@]1(C(C)=O)CC[C@H]2[C@@H]3C[C@H](C)C4=CC(=O)CC[C@]4(C)[C@H]3CC[C@@]21C [Medroxyprogesterone acetate] | -0.00193
COc1ccccc1OCC(O)CN1CCN(CC(=O)Nc2c(C)cccc2C)CC1 (stereo not drawn) [Ranolazine dihydrochloride] | -0.0733
COc1ccccc1OCC(O)CN1CCN(CC(=O)Nc2c(C)cccc2C)CC1 (stereo not drawn) [Ranolazine (Ranexa)] | -0.0104
O=[N+]([O-])c1cccc2cn[nH]c12 [7-Nitroindazole] | 0
CC(C)[C@@H]1NC(=O)[C@H](CCCCN)NC(=O)[C@@H](Cc2c[nH]c3ccccc23)NC(=O)[C@H](Cc2ccc(O)cc2)NC(=O)[C@H](C)N(C)C(=O)[C@H](Cc2ccccc2)NC1=O [Seglitide] | 0.147
COc1cc([C@@H]2c3cc4c(cc3[C@@H](O[C@@H]3O[C@@H]5CO[C@@H](C)O[C@H]5[C@H](O)[C@H]3O)[C@H]3COC(=O)[C@H]23)OCO4)cc(OC)c1O [Etoposide] | 11.7
CCCNCC(O)COc1ccccc1C(=O)CCc1ccccc1 (stereo not drawn) [Propafenone hydrochloride] | -0.0426
CCCCCCCCCCCCCCCCCC(=O)OC(CC(=O)O)C[N+](C)(C)C (racemic) [DL-Stearoylcarnitine chloride] | -0.214
COc1ccc(C2CNC(=O)C2)cc1OC1CCCC1 (stereo not drawn) [Rolipram] | 0.0189

Individual results from the entries so far.
O=C(Nc1ncc([N+](=O)[O-])s1)c1ccc([N+](=O)[O-])c(Cl)c1 – S-phase gammaH2AX median (Z-score): 0.13
O=C1CC2(CCCC2)CC(=O)N1CCCCN1CCN(c2ncccn2)CC1 [Buspirone hydrochloride] – S-phase gammaH2AX median (Z-score): -0.00194
